Reference: PMC8748630
These are yes or no findings as the source states them, for the method shown. In cells and extracts the contact can be indirect. Here binding means that the protein was enriched with, or labelled near, the bait; the list need not be complete. No binding means not detected with the bait.

Columns and labels:
AGIA-AirID-CRBN-WT = AGIA-AirID-CRBN-WT (UniProt Q96SW2); test: proximity labelling; look-up of CRL4 components and known CRBN interactors in the LC-MS/MS analyses of AirID-CRBN cells (Supplementary Fig. 7); cell lines not given
[1] = molecular target: T1, AGIA-AirID-CRBN-WT, Q96SW2; test: as above; details: remark: other sources report otherwise
T1 chain: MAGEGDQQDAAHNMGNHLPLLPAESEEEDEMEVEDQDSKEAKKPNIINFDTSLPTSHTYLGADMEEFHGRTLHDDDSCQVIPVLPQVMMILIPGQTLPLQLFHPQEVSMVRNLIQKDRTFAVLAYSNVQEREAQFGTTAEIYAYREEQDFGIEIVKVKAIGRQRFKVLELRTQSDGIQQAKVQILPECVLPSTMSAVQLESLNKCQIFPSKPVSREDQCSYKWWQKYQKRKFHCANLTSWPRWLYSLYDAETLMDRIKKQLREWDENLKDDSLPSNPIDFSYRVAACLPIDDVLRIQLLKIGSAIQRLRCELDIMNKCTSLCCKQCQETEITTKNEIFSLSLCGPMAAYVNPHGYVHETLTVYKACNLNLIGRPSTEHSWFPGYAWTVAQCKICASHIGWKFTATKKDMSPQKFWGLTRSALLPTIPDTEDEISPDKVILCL

AGIA-TurboID-CRBN-WT [2] = molecular target: AGIA-TurboID-CRBN-WT (UniProt Q96SW2); test: proximity labelling; IMR32 cells stably expressing AGIA-AirID-CRBN or AGIA-TurboID-CRBN; DMSO or 10 µM pomalidomide, 10 µM biotin, 5 µM MG132, 2 h; tamavidin 2-REV, LC-MS/MS
AGIA-TurboID-CRBN-WT [3] = molecular target: AGIA-TurboID-CRBN-WT (UniProt Q96SW2); test: proximity labelling; comparison of enzymes: HEK293T or IMR32 cells stably expressing AGIA-AirID-CRBN or AGIA-TurboID-CRBN; DMSO or 10 µM pomalidomide, 10 µM biotin, 5 µM MG132, 2 h or 6 h; streptavidin pull-down, immunoblot

B1: UBE2G1 (protein, UniProt P62253 1-170)
chain: MTELQSALLLRRQLAELNKNPVEGFSAGLIDDNDLYRWEVLIIGPPDTLYEGGVFKAHLTFPKDYPLRPPKMKFITEIWHPNVDKNGDVCISILHEPGEDKYGYEKPEERWLPIHTVETIMISVISMLADPNGDSPANVDAAKEWREDRNGEFKRKVARCVRKSQETAFE
With B1 as the binder, how does the binding (AGIA-AirID-CRBN-WT) read?
The binding was “no binding”.

B2: MEIS, O14770 1-477 (protein)
chain: MAQRYDELPHYGGMDGVGVPASMYGDPHAPRPIPPVHHLNHGPPLHATQHYGAHAPHPNVMPASMGSAVNDALKRDKDAIYGHPLFPLLALVFEKCELATCTPREPGVAGGDVCSSDSFNEDIAVFAKQVRAEKPLFSSNPELDNLMIQAIQVLRFHLLELEKVHELCDNFCHRYISCLKGKMPIDLVIDERDGSSKSDHEELSGSSTNLADHNPSSWRDHDDATSTHSAGTPGPSSGGHASQSGDNSSEQGDGLDNSVASPGTGDDDDPDKDKKRQKKRGIFPKVATNIMRAWLFQHLTHPYPSEEQKKQLAQDTGLTILQVNNWFINARRRIVQPMIDQSNRAGFLLDPSVSQGAAYSPEGQPMGSFVLDGQQHMGIRPAGLQSMPGDYVSQGGPMGMSMAQPSYTPPQMTPHPTQLRHGPPMHSYLPSHPHHPAMMMHGGPPTHPGMTMSAQSPTMLNSVDPNVGGQVMDIHAQ
B2 was tested. Which binding [1] did it give?
Its binding is “no binding”.

B3: MCT-1, P53985 1-500 (protein)
chain: MPPAVGGPVGYTPPDGGWGWAVVIGAFISIGFSYAFPKSITVFFKEIEGIFHATTSEVSWISSIMLAVMYGGGPISSILVNKYGSRIVMIVGGCLSGCGLIAASFCNTVQQLYVCIGVIGGLGLAFNLNPALTMIGKYFYKRRPLANGLAMAGSPVFLCTLAPLNQVFFGIFGWRGSFLILGGLLLNCCVAGALMRPIGPKPTKAGKDKSKASLEKAGKSGVKKDLHDANTDLIGRHPKQEKRSVFQTINQFLDLTLFTHRGFLLYLSGNVIMFFGLFAPLVFLSSYGKSQHYSSEKSAFLLSILAFVDMVARPSMGLVANTKPIRPRIQYFFAASVVANGVCHMLAPLSTTYVGFCVYAGFFGFAFGWLSSVLFETLMDLVGPQRFSSAVGLVTIVECCPVLLGPPLLGRLNDMYGDYKYTYWACGVVLIISGIYLFIGMGINYRLLAKEQKANEQKKESKEEETSIDVAGKPNEVTKAAESPDQKDTDGGPKEEESPV
B3 was tested. Which binding [1] did it give?
Its binding is “no binding”.

B4: ZMYM2 (protein, UniProt Q9UBW7 1-1377)
chain: MDTSSVGGLELTDQTPVLLGSTAMATSLTNVGNSFSGPANPLVSRSNKFQNSSVEDDDDVVFIEPVQPPPPSVPVVADQRTITFTSSKNEELQGNDSKITPSSKELASQKGSVSETIVIDDEEDMETNQGQEKNSSNFIERRPPETKNRTNDVDFSTSSFSRSKVNAGMGNSGITTEPDSEIQIANVTTLETGVSSVNDGQLENTDGRDMNLMITHVTSLQNTNLGDVSNGLQSSNFGVNIQTYTPSLTSQTKTGVGPFNPGRMNVAGDVFQNGESATHHNPDSWISQSASFPRNQKQPGVDSLSPVASLPKQIFQPSVQQQPTKPVKVTCANCKKPLQKGQTAYQRKGSAHLFCSTTCLSSFSHKPAPKKLCVMCKKDITTMKGTIVAQVDSSESFQEFCSTSCLSLYEDKQNPTKGALNKSRCTICGKLTEIRHEVSFKNMTHKLCSDHCFNRYRMANGLIMNCCEQCGEYLPSKGAGNNVLVIDGQQKRFCCQSCVSEYKQVGSHPSFLKEVRDHMQDSFLMQPEKYGKLTTCTGCRTQCRFFDMTQCIGPNGYMEPYCSTACMNSHKTKYAKSQSLGIICHFCKRNSLPQYQATMPDGKLYNFCNSSCVAKFQALSMQSSPNGQFVAPSDIQLKCNYCKNSFCSKPEILEWENKVHQFCSKTCSDDYKKLHCIVTYCEYCQEEKTLHETVNFSGVKRPFCSEGCKLLYKQDFARRLGLRCVTCNYCSQLCKKGATKELDGVVRDFCSEDCCKKFQDWYYKAARCDCCKSQGTLKERVQWRGEMKHFCDQHCLLRFYCQQNEPNMTTQKGPENLHYDQGCQTSRTKMTGSAPPPSPTPNKEMKNKAVLCKPLTMTKATYCKPHMQTKSCQTDDTWRTEYVPVPIPVPVYIPVPMHMYSQNIPVPTTVPVPVPVPVFLPAPLDSSEKIPAAIEELKSKVSSDALDTELLTMTDMMSEDEGKTETTNINSVIIETDIIGSDLLKNSDPETQSSMPDVPYEPDLDIEIDFPRAAEELDMENEFLLPPVFGEEYEEQPRPRSKKKGAKRKAVSGYQSHDDSSDNSECSFPFKYTYGVNAWKHWVKTRQLDEDLLVLDELKSSKSVKLKEDLLSHTTAELNYGLAHFVNEIRRPNGENYAPDSIYYLCLGIQEYLCGSNRKDNIFIDPGYQTFEQELNKILRSWQPSILPDGSIFSRVEEDYLWRIKQLGSHSPVALLNTLFYFNTKYFGLKTVEQHLRLSFGTVFRHWKKNPLTMENKACLRYQVSSLCGTDNEDKITTGKRKHEDDEPVFEQIENTANPSRCPVKMFECYLSKSPQNLNQRMDVFYLQPECSSSTDSPVWYTSTSLDRNTLENMLVRVLLVKDIYDKDNYELDEDTD
Which results are given for B4?
binding (AGIA-TurboID-CRBN-WT [2]): no binding (tested: 10 µM pomalidomide, 2 h); binding (AGIA-TurboID-CRBN-WT [3]): no binding (tested: 10 µM pomalidomide, 2 h)
